Here are results for two substances from article PMC2857886.

Amino acid sequences for entries named in this document (tags omitted).
UniProt Q15078: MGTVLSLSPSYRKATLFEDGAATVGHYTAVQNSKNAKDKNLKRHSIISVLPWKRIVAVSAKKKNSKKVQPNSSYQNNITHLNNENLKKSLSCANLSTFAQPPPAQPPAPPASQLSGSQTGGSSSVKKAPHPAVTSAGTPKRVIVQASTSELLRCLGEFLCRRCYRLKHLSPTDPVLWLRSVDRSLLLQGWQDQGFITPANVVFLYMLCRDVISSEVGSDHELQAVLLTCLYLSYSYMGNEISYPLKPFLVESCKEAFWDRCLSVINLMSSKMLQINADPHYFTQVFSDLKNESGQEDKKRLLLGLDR
UniProt P61809: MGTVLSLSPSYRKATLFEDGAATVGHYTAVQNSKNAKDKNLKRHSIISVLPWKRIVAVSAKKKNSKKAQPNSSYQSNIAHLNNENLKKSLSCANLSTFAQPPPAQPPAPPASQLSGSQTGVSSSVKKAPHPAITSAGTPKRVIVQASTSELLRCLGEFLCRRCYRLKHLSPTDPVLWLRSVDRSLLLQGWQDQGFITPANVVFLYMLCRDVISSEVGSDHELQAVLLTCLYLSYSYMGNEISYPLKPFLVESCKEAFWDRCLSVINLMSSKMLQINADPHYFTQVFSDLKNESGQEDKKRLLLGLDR

These are yes or no findings as the source states them, for the method shown. In cells and extracts the contact can be indirect. Some entries that bind do so weakly or less than the wild type. For some assays here: Sequences can lack the tags named with a protein.

The target in assay [1] is T1, Apoptosis-associated tyrosine kinase 1A (AATYK1A) tagged with Flag (UniProt Q80YE4).
T1 sequence: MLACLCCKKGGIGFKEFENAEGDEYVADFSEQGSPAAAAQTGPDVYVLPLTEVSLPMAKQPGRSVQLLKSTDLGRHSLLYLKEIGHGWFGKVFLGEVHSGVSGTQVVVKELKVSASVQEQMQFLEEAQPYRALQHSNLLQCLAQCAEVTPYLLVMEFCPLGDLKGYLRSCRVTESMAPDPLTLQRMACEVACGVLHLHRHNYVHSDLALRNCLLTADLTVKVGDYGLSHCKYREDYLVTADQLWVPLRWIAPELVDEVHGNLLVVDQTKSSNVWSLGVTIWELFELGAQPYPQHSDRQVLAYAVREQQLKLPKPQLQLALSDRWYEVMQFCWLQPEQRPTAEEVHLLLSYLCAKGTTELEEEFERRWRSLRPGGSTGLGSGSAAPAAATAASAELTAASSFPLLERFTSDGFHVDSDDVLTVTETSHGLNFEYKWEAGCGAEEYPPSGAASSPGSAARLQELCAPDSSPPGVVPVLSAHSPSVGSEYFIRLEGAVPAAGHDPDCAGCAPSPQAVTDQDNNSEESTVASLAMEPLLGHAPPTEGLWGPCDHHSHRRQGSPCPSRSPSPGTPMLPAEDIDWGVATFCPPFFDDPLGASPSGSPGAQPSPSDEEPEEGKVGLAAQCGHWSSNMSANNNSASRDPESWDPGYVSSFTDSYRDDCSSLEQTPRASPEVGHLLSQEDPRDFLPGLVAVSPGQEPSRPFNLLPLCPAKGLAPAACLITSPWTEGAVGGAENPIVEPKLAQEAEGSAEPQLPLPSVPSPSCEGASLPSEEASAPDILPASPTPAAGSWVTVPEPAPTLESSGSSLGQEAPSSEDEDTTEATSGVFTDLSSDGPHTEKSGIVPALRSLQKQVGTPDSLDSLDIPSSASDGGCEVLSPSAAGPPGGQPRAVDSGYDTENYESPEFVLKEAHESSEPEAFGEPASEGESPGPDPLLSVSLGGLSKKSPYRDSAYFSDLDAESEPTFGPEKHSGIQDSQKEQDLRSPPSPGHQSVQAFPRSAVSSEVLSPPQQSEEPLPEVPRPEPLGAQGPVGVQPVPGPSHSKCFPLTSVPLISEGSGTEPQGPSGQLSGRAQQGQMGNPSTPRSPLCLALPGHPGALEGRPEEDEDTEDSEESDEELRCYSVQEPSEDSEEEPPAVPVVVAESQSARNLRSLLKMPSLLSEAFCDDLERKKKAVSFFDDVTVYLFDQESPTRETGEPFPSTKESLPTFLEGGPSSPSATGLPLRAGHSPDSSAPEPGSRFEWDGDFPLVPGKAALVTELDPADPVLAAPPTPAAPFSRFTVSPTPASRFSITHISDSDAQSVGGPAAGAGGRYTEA
Description: co-IP; AATYK1A-Flag coexpressed with both p35 and Cdk5 in HEK293 cells; immunoprecipitated from cell lysates with anti-Flag; immunoblot with anti-p35 and anti-Cdk5. For orientation: A western blot detects proteins with antibodies after separation by electrophoresis.

The target of assay [2] is T2, AATYK1 (endogenous, mouse brain) (mouse (endogenous in brain)) (UniProt Q80YE4).
T2 sequence: T1 sequence
Description: co-IP; mouse brain extract (10 weeks); AATYK1 immunoprecipitated with the anti-AATYK1 antibody; HEPES buffer (20 mM HEPES pH 7.5, 150 mM NaCl, 2 mM MgCl2, 1 mM EGTA, 0.5% Nonidet P-40); immunoblot with anti-p35 and anti-Cdk5.

Take “p35, activation subunit of Cdk5 (from UniProt Q15078 1-307)”: the binding result in assay [1] is on record as “binds”.
For “p35 (endogenous, mouse brain) (from UniProt P61809 1-307)”, the binding entry in assay [2] was “binds”.
